Measurements reported in PMC4851402, “Validation of N-myristoyltransferase as Potential Chemotherapeutic Target in Mammal-Dwelling Stages of Trypanosoma cruzi” (PLoS Neglected Tropical Diseases, 2016).

Tests used:
[1] = tested on: Purified ICAs of T. cruzi; type: cell-based, Trypanosoma cruzi (Y strain); details: selectivity index, U2OS cells vs purified ICAs
Method: Intracellular amastigote (ICA) forms were purified as described. Briefly, 5 x 10^6 LLC-MK2 cells were seeded in a 150-cm^2 tissue culture flask (NUNC, Thermo Scientific) and cells were grown for 3–4 days to reach confluency of ~2 x 10^7 cells per flask. The medium was then replaced with fresh complete medium and host cells were infected with 1 x 10^8 TCT (multiplicity of infection (MOI) ≈ 5). After 5 days, the infected monolayers were gently detached by scraping and resuspended in 5 mL phosphate-buffered saline (PBS). The suspension containing the infected cells was next transferred to an M-tube (Miltenyi Biotec Inc., San Diego, CA). This tube bears a special stator and rotor that allows for tissue homogenization. In addition, it has a pre-inserted mesh that retains larger particles, removing them from the homogenized sample. The tube was then placed in the gentleMACS Dissociator (Miltenyi Biotec) for the automated disruption of host cells. The homogenized sample containing the parasites was then passed through a column containing anion exchange preswollen microgranular diethylaminoethyl cellulose (DE52, Whatman, Sigma-Aldrich).
DMSO control wells contained 30 μL 6% DMSO, whereas wells for the negative control contained 1% hydrogen peroxide in DMEM. U2OS cells were resuspended in DMEM, 10% HI-FBS, to give a cell density of 2 x 10^5 cells/mL, while ICA forms were resuspended in DMEM, 10% HI-FBS, to a final density of 1 x 10^7 per well. Epi forms were resuspended in LIT medium to a density of 1 x 10^6 parasites per well. Hundred and fifty microliters of the suspension containing either host cells or parasites were added per well. Following 47- and 23-h incubation at 37°C for mammalian cells and ICA, respectively, a mixture of propidium iodide (Invitrogen) and Hoechst dye (Invitrogen) diluted in culture media (1 μg/mL each) was added to the plates, which were then further incubated for 1 h at 37°C. […] In the case of Epi, after 68-h incubation at 28°C, 18 μL Alamar Blue (AbD Serotec, Raleigh, NC) were added per well. Following an additional 4-h incubation, the plate was read in a microplate fluorometer (Thermo Scientific) at excitation 560 nm, emission 590 nm. Three independent experiments were performed in triplicate wells.
(§1) EC50 were determined from three independent experiments.

[2] = tested on: T. cruzi intracellular amastigote proliferation; assay: In vitro T. cruzi intracellular proliferation assay in infected U2OS cells, high-content imaging; type: cell-based, Trypanosoma cruzi (Y strain); details: selectivity index, U2OS cells vs T. cruzi proliferation assay
Method: DMSO control wells contained 30 μL 6% DMSO. Human […] (U2OS cells) were diluted in DMEM, 10% heat inactivated-fetal bovine serum (HI-FBS) to give a cell density of 2 x 10^5 cells/mL. T. cruzi trypomastigotes were resuspended in DMEM, 10% HI-FBS to a final density of 1.2 x 10^7. Cells and parasites were mixed a ratio of 4 volumes of cells plus 1 volume of parasites. 150 μL of the mixture were dispensed per well. Plates were incubated for 48 h. After the incubation period, media was removed from the wells and 100 μL 4% paraformaldehyde (PFA) were added. After 15 min of incubation at room temperature, PFA was removed and cells and parasites were stained with Draq5 (BioStatus, Leicestershire, UK) at a concentration of 5 μM diluted in PBS. The plates were then read in a bioimager system as described below. Three independent experiments were performed in triplicate wells.
Filter sets appropriate for the excitation and emission spectra of Draq5 were utilized. Images from four fields (2 x 2 montage) were acquired per well with a 20x objective. To perform the host cell segmentation and counting of parasites, the BD AttoVision v1.6.2 Sub Object analysis was used. […]
as §1

SMILES | Purified ICAs S.I. [1] | T. cruzi proliferation assay S.I. [2]
Cc1c(NS(=O)(=O)c2c(Cl)cc(-c3ccnc(N4CCNCC4)c3)cc2Cl)c(CC(C)C)nn1C [Compound 1] | 7.0 | –
Cc1nn(C)c(C)c1NS(=O)(=O)c1c(Cl)cc(CCCN2CCN(C)CC2)cc1Cl [Compound 3] | – | > 4.85
Cc1nn(C)c(C)c1N(C(F)F)S(=O)(=O)c1c(Cl)cc(CCCC2CCN(C)CC2)cc1Cl [Compound 5] | 190.0 | –
Cc1nn(C)c(C)c1N(CC(F)(F)F)S(=O)(=O)c1c(Cl)cc(CCCC2CCN(C)CC2)cc1Cl [Compound 7] | 1.3 | –
Cc1nn(C)c(C)c1N(C(F)F)S(=O)(=O)c1c(Cl)cc(CCCCC2CCN(C)CC2)cc1Cl [Compound 8] | 595.0 | –
